Literature values in patent publication US20040132743A1, “Amorphous form of (-)-[2-[4-[(4-Chlorophenyl)-phenyl methyl]-1- piperazinyl] ethoxy] acetic acid dihydrochloride (levocetirizine dihydrochloride)” (DR. REDDY'S LABORATORIES LIMITED DR. REDDY'S LABORATORIES, …, priority 2002, published 2004).

Sequences of proteins named here, by UniProt entry; tags and fusion partners are left off.
UniProt P35367, whole entry: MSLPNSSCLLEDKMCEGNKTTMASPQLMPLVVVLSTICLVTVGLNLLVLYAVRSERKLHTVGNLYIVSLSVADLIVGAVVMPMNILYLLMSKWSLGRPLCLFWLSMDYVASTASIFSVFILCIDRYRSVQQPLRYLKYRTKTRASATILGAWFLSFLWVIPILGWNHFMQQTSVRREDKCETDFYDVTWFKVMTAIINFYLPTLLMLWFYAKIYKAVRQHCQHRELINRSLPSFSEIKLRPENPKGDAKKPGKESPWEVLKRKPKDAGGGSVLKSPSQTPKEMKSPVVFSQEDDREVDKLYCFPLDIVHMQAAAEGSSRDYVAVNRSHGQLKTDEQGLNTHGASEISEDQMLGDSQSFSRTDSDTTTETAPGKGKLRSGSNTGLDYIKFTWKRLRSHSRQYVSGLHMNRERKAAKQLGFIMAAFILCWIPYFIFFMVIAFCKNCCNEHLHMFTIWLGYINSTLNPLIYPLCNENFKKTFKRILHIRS

Tests used:
human H1 receptors = human H1 receptors (Homo sapiens, UniProt P35367); conditions: compared with cetirizine
[1] = in vivo

affinity for human H1 receptors relative to cetirizine (human H1 receptors): two-fold higher
absorption [1]: rapidly and extensively absorbed
Compound: O=C(O)COCCN1CCN([C@H](c2ccccc2)c2ccc(Cl)cc2)CC1 [Levocetirizine]
